{"source": "PubChem BioAssay AID504804 | Drosophila RNAi Screening Center – 2011", "purpose": "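Fly genes whose loss lessens doxorubicin-driven cell death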 (primary screen)", "cells": "Drosophila Kc cells", "knock-down reagent": "long dsRNA against Drosophila genes, 0.5 µg dsRNA per well", "duration": "96 h (48 h knock-down, then 48 h drug)", "challenge": "doxorubicin 5 µg/ml for 48 h, added 48 h after dsRNA", "measurement": "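Viability measured as cellular ATP by luminescence after 48 h knock-down then 48 h doxorubicin at 5 µg/ml; unnormalised plate counts for each replicate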", "scale": "raw ATP luminescence: higher = more viable cells, protection from doxorubicin", "hit rule": "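z-score of 2 or more over plate mean in both duplicates, retained only when retests and separate dsRNAs confirm the protection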", "note": "In all, the deposit lists about 19,000 reagents; shown is an unselected part of those that have a named target and a result. Of all reagents, 47 (0.25%) are marked active. 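Signals are raw, not normalised; exact z-scores behind calls not deposited; actives needed confirmation, so some wells reaching 2 SD are inactive.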 Reagents against one gene are numbered here. Names joined by + are all predicted targets of the reagent."}
{"gene": "smog", "dsRNA no.": 1, "raw ATP luminescence, replicate 1": 21227, "raw ATP luminescence, replicate 2": 37313, "call": "inactive"}
{"gene": "smog", "dsRNA no.": 2, "raw ATP luminescence, replicate 1": 14297, "raw ATP luminescence, replicate 2": 23273, "call": "inactive"}
{"gene": "frm (farmer)", "dsRNA no.": 1, "raw ATP luminescence, replicate 1": 40483, "raw ATP luminescence, replicate 2": 46637, "call": "inactive"}
{"gene": "bic (bicaudal)", "dsRNA no.": 1, "raw ATP luminescence, replicate 1": 61530, "raw ATP luminescence, replicate 2": 53000, "call": "inactive"}
{"gene": "CG9130 + CG9133", "dsRNA no.": 1, "raw ATP luminescence, replicate 1": 2.55e5, "raw ATP luminescence, replicate 2": 2.88e5, "call": "inactive"}
{"gene": "CG9130 + CG9133", "dsRNA no.": 2, "raw ATP luminescence, replicate 1": 75590, "raw ATP luminescence, replicate 2": 75683, "call": "inactive"}
{"gene": "CG17826", "dsRNA no.": 1, "raw ATP luminescence, replicate 1": 79093, "raw ATP luminescence, replicate 2": 68587, "call": "inactive"}
{"gene": "CG10663", "dsRNA no.": 1, "raw ATP luminescence, replicate 1": 52053, "raw ATP luminescence, replicate 2": 58673, "call": "inactive"}
{"gene": "Khc (Kinesin heavy chain)", "dsRNA no.": 1, "raw ATP luminescence, replicate 1": 53667, "raw ATP luminescence, replicate 2": 62267, "call": "inactive"}
{"gene": "t-Grip84 (testis-specific gamma-tubulin ring protein 84)", "dsRNA no.": 1, "raw ATP luminescence, replicate 1": 69077, "raw ATP luminescence, replicate 2": 76703, "call": "inactive"}
{"gene": "dtn (detonator)", "dsRNA no.": 1, "raw ATP luminescence, replicate 1": 38400, "raw ATP luminescence, replicate 2": 37390, "call": "inactive"}
{"gene": "CG12814", "dsRNA no.": 1, "raw ATP luminescence, replicate 1": 54100, "raw ATP luminescence, replicate 2": 18733, "call": "inactive"}
{"gene": "CG12814", "dsRNA no.": 2, "raw ATP luminescence, replicate 1": 54410, "raw ATP luminescence, replicate 2": 37247, "call": "inactive"}
{"gene": "Vm34Ca (Vitelline membrane 34Ca)", "dsRNA no.": 1, "raw ATP luminescence, replicate 1": 73423, "raw ATP luminescence, replicate 2": 69180, "call": "inactive"}
{"gene": "Ist1", "dsRNA no.": 1, "raw ATP luminescence, replicate 1": 56190, "raw ATP luminescence, replicate 2": 39830, "call": "inactive"}
{"gene": "Sugb (Sugar baby)", "dsRNA no.": 1, "raw ATP luminescence, replicate 1": 35133, "raw ATP luminescence, replicate 2": 46777, "call": "inactive"}
{"gene": "CG12278", "dsRNA no.": 1, "raw ATP luminescence, replicate 1": 70000, "raw ATP luminescence, replicate 2": 48650, "call": "inactive"}
{"gene": "CG4613", "dsRNA no.": 1, "raw ATP luminescence, replicate 1": 66937, "raw ATP luminescence, replicate 2": 48557, "call": "inactive"}
{"gene": "CG10969", "dsRNA no.": 1, "raw ATP luminescence, replicate 1": 87370, "raw ATP luminescence, replicate 2": 73767, "call": "inactive"}
{"gene": "sax (saxophone)", "dsRNA no.": 1, "raw ATP luminescence, replicate 1": 68470, "raw ATP luminescence, replicate 2": 60953, "call": "inactive"}
{"gene": "CG17780", "dsRNA no.": 1, "raw ATP luminescence, replicate 1": 73090, "raw ATP luminescence, replicate 2": 75250, "call": "inactive"}
{"gene": "CG18266", "dsRNA no.": 1, "raw ATP luminescence, replicate 1": 1.06e5, "raw ATP luminescence, replicate 2": 93967, "call": "inactive"}
{"gene": "CG2906", "dsRNA no.": 1, "raw ATP luminescence, replicate 1": 45230, "raw ATP luminescence, replicate 2": 74380, "call": "inactive"}
{"gene": "CG32221", "dsRNA no.": 1, "raw ATP luminescence, replicate 1": 62700, "raw ATP luminescence, replicate 2": 60410, "call": "inactive"}
{"gene": "vret (vreteno)", "dsRNA no.": 1, "raw ATP luminescence, replicate 1": 56757, "raw ATP luminescence, replicate 2": 57420, "call": "inactive"}
{"gene": "CG13616", "dsRNA no.": 1, "raw ATP luminescence, replicate 1": 56520, "raw ATP luminescence, replicate 2": 59070, "call": "inactive"}
{"gene": "Coq3 (Coenzyme Q3)", "dsRNA no.": 1, "raw ATP luminescence, replicate 1": 75423, "raw ATP luminescence, replicate 2": 63377, "call": "inactive"}
{"gene": "CG4115", "dsRNA no.": 1, "raw ATP luminescence, replicate 1": 59943, "raw ATP luminescence, replicate 2": 36950, "call": "inactive"}

Targets above whose target name starts with V or v:
{"gene": "Vm34Ca (Vitelline membrane 34Ca)", "dsRNA no.": 1, "raw ATP luminescence, replicate 1": 73423, "raw ATP luminescence, replicate 2": 69180, "call": "inactive"}
{"gene": "vret (vreteno)", "dsRNA no.": 1, "raw ATP luminescence, replicate 1": 56757, "raw ATP luminescence, replicate 2": 57420, "call": "inactive"}
